Measurements reported in PubChem BioAssay AID1259298 (Sanger Institute, 2017).
The whole screen tested 794 reagents; this is a random part of them. Over the whole deposit, 20 (2.5%) are marked active. 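Calls rest only on the knock-down-alone score; drug synergy scores played no part in them.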 Viability is capped at 1. The record does not give: the amount of reagent, the time to read-out.

Aim: 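Kinome knock-downs lethal on their own or synergising with anchor drugs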 (primary screen)
System: HT55 human colorectal cancer cell line
Knock-down reagent: siRNA pool against human genes
Challenge: anchor drug BYL719 1 µM, cetuximab 5 µg/ml or trametinib 10 nM, or DMSO vehicle alone
Detection: 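Replicate-averaged viability versus wells of non-targeting pool; knock-down-only robust z-score; per-drug synergy score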
Direction: robust z-score, knock-down alone: higher = more cells remaining; low means essential gene; viability vs control pool, no drug: higher = more viable cells; synergy score with BYL719 and synergy score with cetuximab and synergy score with trametinib: higher = stronger synthetic lethality with the drug
Call rule: 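Essential when the robust z-score for knock-down alone with DMSO is below -3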
Calls: active = essential (knock-down alone); inactive = no change alone

target gene | PubChem SID | robust z-score, knock-down alone | viability vs control pool, no drug (fraction) | synergy score with BYL719 | synergy score with cetuximab | synergy score with trametinib | Call
PTEN (phosphatase and tensin homolog) | SID152153158 | 0.58 | 1 | -0.136 | -0.0652 | 0.000119 | inactive
LATS1 (large tumor suppressor kinase 1) | SID56478819 | 0.344 | 0.982 | -0.197 | -0.13 | 0.162 | inactive
KCNH2 (potassium voltage-gated channel subfamily H member 2) | SID135621164 | -1.18 | 0.863 | -0.127 | -0.143 | -0.135 | inactive
MAP3K2 (mitogen-activated protein kinase kinase kinase 2) | SID135620706 | -1.82 | 0.812 | -0.171 | -0.00234 | 0.00721 | inactive
NEK1 (NIMA related kinase 1) | SID152155530 | -0.887 | 0.885 | -0.109 | -0.142 | 0.0787 | inactive
STRADA (STE20 related adaptor alpha) | SID152149670 | 0.58 | 1 | -0.22 | -0.106 | -0.0501 | inactive
CSNK1D (casein kinase 1 delta) | SID56478658 | 0.58 | 1 | -0.0342 | -0.00914 | 0.0347 | inactive
NLK (nemo like kinase) | SID56478865 | 0.58 | 1 | -0.272 | -0.134 | 0.108 | inactive
PKM (pyruvate kinase M1/2) | SID135621254 | 0.58 | 1 | -0.153 | -0.104 | 0.0903 | inactive
SRPK3 (SRSF protein kinase 3) | SID135620894 | 0.58 | 1 | -0.186 | -0.211 | -0.0938 | inactive
PIK3R1 (phosphoinositide-3-kinase regulatory subunit 1) | SID135620606 | 0.0746 | 0.961 | -0.134 | -0.0676 | -0.042 | inactive
PIM1 (Pim-1 proto-oncogene, serine/threonine kinase) | SID56478736 | -0.983 | 0.878 | -0.113 | -0.148 | 0.072 | inactive
CKB (creatine kinase B) | SID56479084 | 0.58 | 1 | -0.272 | -0.211 | -0.213 | inactive
CREBBP (CREB binding lysine acetyltransferase) | SID152156768 | 0.289 | 0.977 | -0.149 | 0.00761 | 0.111 | inactive
MAPKAPK3 (MAPK activated protein kinase 3) | SID56478946 | -3.1 | 0.712 | -0.22 | -0.0895 | -0.0701 | active
PFKFB4 (6-phosphofructo-2-kinase/fructose-2,6-biphosphatase 4) | SID152152940 | 0.58 | 1 | -0.272 | -0.0891 | 0.00867 | inactive
MYLK (myosin light chain kinase) | SID152147192 | 0.303 | 0.978 | -0.222 | -0.117 | 0.0339 | inactive
MAP3K1 (mitogen-activated protein kinase kinase kinase 1) | SID152150888 | 0.58 | 1 | -0.133 | -0.0818 | -0.0542 | inactive

Sorted by “viability vs control pool, no drug (fraction)” (lowest first): 7 of the entries above.
target gene | PubChem SID | robust z-score, knock-down alone | viability vs control pool, no drug (fraction) | synergy score with BYL719 | synergy score with cetuximab | synergy score with trametinib | Call
PIM1 (Pim-1 proto-oncogene, serine/threonine kinase) | SID56478736 | -0.983 | 0.878 | -0.113 | -0.148 | 0.072 | inactive
PIK3R1 (phosphoinositide-3-kinase regulatory subunit 1) | SID135620606 | 0.0746 | 0.961 | -0.134 | -0.0676 | -0.042 | inactive
CSNK1D (casein kinase 1 delta) | SID56478658 | 0.58 | 1 | -0.0342 | -0.00914 | 0.0347 | inactive
NLK (nemo like kinase) | SID56478865 | 0.58 | 1 | -0.272 | -0.134 | 0.108 | inactive
PKM (pyruvate kinase M1/2) | SID135621254 | 0.58 | 1 | -0.153 | -0.104 | 0.0903 | inactive
SRPK3 (SRSF protein kinase 3) | SID135620894 | 0.58 | 1 | -0.186 | -0.211 | -0.0938 | inactive
CKB (creatine kinase B) | SID56479084 | 0.58 | 1 | -0.272 | -0.211 | -0.213 | inactive

The listing continues.
target gene | PubChem SID | robust z-score, knock-down alone | viability vs control pool, no drug (fraction) | synergy score with BYL719 | synergy score with cetuximab | synergy score with trametinib | Call
DGKK (diacylglycerol kinase kappa) | SID135624472 | 0.58 | 1 | -0.144 | -0.153 | 0.227 | inactive
CDC73 (cell division cycle 73) | SID134319235 | -2.92 | 0.727 | -0.248 | -0.138 | -0.179 | inactive
CHEK2 (checkpoint kinase 2) | SID152153325 | 0.278 | 0.976 | -0.174 | -0.114 | -0.063 | inactive
CLK3 (CDC like kinase 3) | SID56478875 | -0.561 | 0.911 | -0.0845 | -0.0047 | -0.0741 | inactive
NME6 (NME/NM23 nucleoside diphosphate kinase 6) | SID56479120 | -1.24 | 0.858 | -0.174 | 0.0665 | -0.0334 | inactive
STK17B (serine/threonine kinase 17b) | SID56478762 | 0.523 | 0.996 | -0.187 | -0.0348 | 0.00209 | inactive
NEK10 (NIMA related kinase 10) | SID56478763 | -0.887 | 0.885 | -0.161 | -0.157 | 0.0303 | inactive
ATRX (ATRX chromatin remodeler) | SID152156576 | 0.58 | 1 | -0.272 | -0.211 | -0.273 | inactive
COASY (Coenzyme A synthase) | SID56479117 | -3.41 | 0.688 | -0.197 | 0.0345 | 0.0254 | active
DCLK2 (doublecortin like kinase 2) | SID152154613 | -0.772 | 0.894 | -0.176 | -0.0819 | -0.0616 | inactive
MKNK2 (MAPK interacting serine/threonine kinase 2) | SID152150791 | -0.607 | 0.907 | -0.291 | -0.243 | -0.0922 | inactive
PACSIN1 (protein kinase C and casein kinase substrate in neurons 1) | SID56479194 | -0.379 | 0.925 | -0.19 | -0.0501 | 0.166 | inactive
AK4 (adenylate kinase 4) | SID152149659 | 0.58 | 1 | -0.101 | -0.108 | -0.0227 | inactive
CLSPN (claspin) | SID134310856 | -0.464 | 0.918 | -0.0322 | -0.091 | 0.0584 | inactive
TWF2 (twinfilin actin binding protein 2) | SID56478547 | 0.58 | 1 | -0.185 | -0.211 | 0.018 | inactive
TRPM7 | SID152149681 | 0.58 | 1 | -0.259 | -0.0876 | -0.00649 | inactive
CIT (citron rho-interacting serine/threonine kinase) | SID56478810 | -0.649 | 0.904 | -0.104 | 0.137 | 0.0715 | inactive
CAMK2A (calcium/calmodulin dependent protein kinase II alpha) | SID56478931 | 0.58 | 1 | -0.19 | -0.142 | 0.0244 | inactive
PFKP (phosphofructokinase, platelet) | SID56479236 | -0.695 | 0.9 | -0.127 | -0.0461 | 0.0111 | inactive
PDXK (pyridoxal kinase) | SID56478979 | 0.58 | 1 | -0.272 | -0.211 | -0.148 | inactive
CDKN1B (cyclin dependent kinase inhibitor 1B) | SID56478655 | 0.153 | 0.967 | -0.104 | -0.02 | 0.0116 | inactive
STK33 (serine/threonine kinase 33) | SID56479053 | 0.58 | 1 | -0.0136 | -0.0178 | -0.00921 | inactive
PIK3R4 (phosphoinositide-3-kinase regulatory subunit 4) | SID135620923 | 0.58 | 1 | -0.0113 | -0.156 | -0.000169 | inactive
TSSK1B (testis specific serine kinase 1B) | SID56478967 | 0.575 | 1 | -0.167 | -0.0202 | 0.0578 | inactive
AKT1 (AKT serine/threonine kinase 1) | SID135620599 | 0.58 | 1 | -0.249 | -0.163 | -0.0412 | inactive
PTK6 (protein tyrosine kinase 6) | SID152152810 | 0.379 | 0.984 | -0.267 | -0.224 | -0.0705 | inactive
ACVR1B (activin A receptor type 1B) | SID56478918 | 0.58 | 1 | -0.215 | -0.0997 | -0.0716 | inactive
TLK2 (tousled like kinase 2) | SID56479057 | 0.58 | 1 | -0.253 | -0.0342 | 0.00998 | inactive
PRKAB2 (protein kinase AMP-activated non-catalytic subunit beta 2) | SID134312706 | -1.47 | 0.84 | -0.189 | -0.0954 | -0.126 | inactive
SIK1 (salt inducible kinase 1) | SID152146842 | 0.58 | 1 | -0.106 | -0.0842 | 0.0496 | inactive
JAK3 (Janus kinase 3) | SID56478525 | 0.58 | 1 | -0.242 | -0.111 | -0.0675 | inactive
PRKCA (protein kinase C alpha) | SID56478672 | -1.69 | 0.823 | 0.0264 | -0.132 | -0.0864 | inactive
